The results in this text go back to PubChem BioAssay AID1508600 (Functional Genomics Laboratory (NCATS/FGL), 2020).

Hit rate of the full screen: of about 53,000 sequences, about 3,700 (7%) were called active.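 Rule for the calls: active = gene knockdowns whose robust z-score for IL-1 alpha signal is at least 2 or at most -2, so actives lie on both sides; inactive = the rest.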 The list shows a part of the results.

A short description of this experiment: Components of the Cytosolic LPS Sensing Pathway: Gene Identification via Genome-wide siRNA Screen.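 Note: robust z of the log signal after scaling to non-targeting control siRNA wells of the plate.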 The conditions noted are these: RAW264.7 macrophages, IL-1a HTRF, actives lie on both sides, screened at 100 nM (by protocol), cells primed 5 h with Pam3CSK4 first. An outline of the steps: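 IL-1a HTRF of supernatants after 24 hour LipidA transfection of Pam3CSK4-primed (5 hours) RAW264.7 cells, 48h post-siRNA transfection (100 nM). Scores: percent of plate negative-control median, then log-based robust z-score.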
As to GGGUUGCCUACUGCAUUAUTT against Cbx2, the z-score is inactive: 0.0297.

GGAAAUCAUUAGCACCUAGTT against Sox13: the z-score is inactive: 1.16.

For GCUGCUACGUUCUUGUAAATT against Pmp2, the z-score is inactive: 0.136.

For the sequence GGAUUUGCAAAGCCCAGUCTT against Zfp934, the z-score was inactive: -0.214.

For GGAACCAUGAAAUAAAUGUTT against Acad8, the z-score was inactive: 0.684.

On to GCAGCUAGAUAAUUAACUATT against Atp10b, for which the z-score is inactive: 0.48.

As for CCGCUUUGUCAGCAUGUGGTT against Tmem259, the z-score is inactive: -0.313.

On to GGAUAGAAACAUCUUGUCUTT against Smcp, for which the z-score is inactive: 0.412.

Consider GGUGGUAAAGAUUACAUCUTT against Sarnp, for which the z-score is inactive: 0.512.

As for CGCUCCAUCCAAGAGUUCUTT against Gp1bb, the z-score was inactive: 1.95.

Turning to GCUGGAAUGCAAGGGCUUCTT against Gchfr, the z-score was inactive: 1.45.

In the case of CCUCACAAAGCACAAUAUCTT against Sntg1, the z-score is inactive: -1.46.

With GGAAUACACCAUUUAACAATT against Acbd5, the z-score was inactive: 1.32.

Regarding GGAAGUGUCAGGAUAUAUUTT against Cfap299, the z-score is inactive: 0.408.

Turning to GCGGAACCUGAACAUUCGUTT against Zhx2, the z-score is inactive: 0.523.

As for GGGCCAACAAACUGUUUAATT against Lysmd2, the z-score was inactive: -0.263.

On to GCCGUCAUUUUGCCUCGAUTT against Zswim3, for which the z-score is inactive: -0.542.

For the sequence GCAGAGAUAUCAAAUGGGATT against Atp6v1a, the z-score is inactive: -1.07.

Consider GGGUUCAACACAGCCAAUGTT against Fam151a, for which the z-score is inactive: 0.987.

For the sequence GGAGGAAGAAACAACAAUGTT against Calhm5, the z-score is inactive: 0.76.

In the case of CCAGUUUUUCGAGUAUACGTT against Galnt12, the z-score was inactive: -0.321.

For GGCUCAAUAAAAUGAAGUGTT against Elovl2, the z-score is active: 2.03.

Regarding GGAGACUGCUUUCCUCUACTT against Wnt9a, the z-score is inactive: -0.283.

In the case of GGUGAUUUCGGGUAACGAGTT against Ddr1, the z-score was active: -2.17.

For GGCAGUGGCCGAAAAGACUTT against Fzd7, the z-score is inactive: -0.0835.

With GCACAUGGUGAUUUAUAUATT against Ostn, the z-score was inactive: -0.448.

With GGGCAAAUCCUUUAGUUUGTT against Siae, the z-score was inactive: -0.62.

CCGACCCAAUUAAUGAUCATT against Tlcd2: the z-score is inactive: -1.12.

With GGUGCAGGCCAUGAUUUACTT against C1qtnf4, the z-score was active: 2.65.

In the case of CGCAAAGGAAGAAAUGCUGTT against Klra17, the z-score was inactive: 0.0433.

For the sequence GCACUCAAAUGGUAGAUUCTT against Socs6, the z-score is inactive: -0.315.

Turning to GGAAGAGAGAUGGAAAAAATT against Gcnt1, the z-score is inactive: -0.267.

In the case of GGAAAGGAGAAGAGAAAUGTT against Scyl1, the z-score was inactive: 1.18.

As for GCCUCACAACUCUUACACCTT against Ptprc, the z-score was inactive: 0.954.

Turning to GGCUUUUUGUCUAACAAGUTT against Trappc13, the z-score was inactive: 0.23.

Take GGAGCAGAUACCCUAGCCUTT against Mtx1: the z-score is inactive: 0.698.

For GGUCAAUAUUCUUAUGUCCTT against S1pr3, the z-score is inactive: 0.245.

In the case of GGAAGAUGAUAACAACAACTT against Kif3c, the z-score is inactive: 1.02.

For GGCUUUUUAUUCAAAUCCCTT against Ky, the z-score was inactive: 0.323.

Turning to GAAGCAGAACUUGAGCAAGTT against Phgdh, the z-score was active: 2.07.

As for GGCUUAGAGUCAUCUUUAATT against Mia2, the z-score was inactive: -0.0357.

Turning to CCCAGGACUCGGAUUAGAATT against Slc25a41, the z-score was inactive: 0.706.

Regarding “CCCAUUGGUAUACUUGGAUTT against 2210407C18Rik”, the z-score was inactive: -0.293.

Consider CCCUACGCUUCAUCAAGCUTT against Glp1r, for which the z-score is inactive: 0.926.

Consider GGUCUACCUGGAGUAAUGCTT against Sp1, for which the z-score is inactive: -0.636.

Turning to GGCAGAGGAAAUUCUGGAGTT against Rpl11, the z-score is inactive: 0.482.

Turning to GGCAAAACCACAAUGAACUTT against Ncaph2, the z-score was inactive: 0.294.

As to GGUGUUUUUGUCCAGGUCATT against Kcnk3, the z-score was inactive: -0.618.

Take GGCAUAUAUACAUACCUCCTT against Olfr1389: the z-score is inactive: -0.334.

As to GGUAUUCACACUGAAGCCCTT against H2-DMa, the z-score is inactive: 0.108.

GGAUGAGAAAUACUUUCGGTT against C8a: the z-score was inactive: 0.126.

For ACCUUCAACACCAGUUUGGTT against Olfr1393, the z-score is inactive: -0.654.

Regarding GGAUAGAUGCAACAAGUUUTT against Zc3hav1l, the z-score is inactive: 1.75.

On to GGCCCAGAACAGAAAACUCTT against Clec1a, for which the z-score was inactive: -0.582.

Consider CCAUCAAGGGAGGUCCUUUTT against Renbp, for which the z-score is inactive: -0.291.

In the case of GGCCACCUAUAUGCUGAAGTT against Ngef, the z-score is inactive: 0.792.

Regarding GGACCAAUAAAUCCUGAUATT against Gzmm, the z-score was inactive: -0.108.

For the sequence GGAUAUACCAACCUACAAATT against Plxnc1, the z-score was inactive: 1.03.

Consider GGAGAAGUUUGAAGAGAUGTT against Cct5, for which the z-score is active: -2.24.

Turning to GCUCCCACGAUAUAGCCACTT against Gm839, the z-score is inactive: 0.87.

With GCCUGGAGAAGUGAACUCUTT against Tll1, the z-score was inactive: -1.65.

GGAAAUAUGUGUCCGCACUTT against Mfap2: the z-score is inactive: -0.0699.

Turning to GGUAGAACAGUGCUUAAAGTT against Nepro, the z-score was inactive: -1.48.

Consider GCUCUCUUAUUGUGAACCUTT against Olfr1168, for which the z-score is inactive: 0.69.

Regarding CGCAUUCUACGCCUUUAUGTT against Wbp11, the z-score is inactive: 0.0351.

As to GGAAUCUCAGCCUUGAAAGTT against Naxd, the z-score was inactive: 0.746.

Regarding CCGUGUUCUUAUGGGUUUUTT against Fgf13, the z-score was inactive: 1.3.

Regarding CCACCAUCGGUUGUUAGUUTT against Actg1, the z-score was inactive: 1.81.

CCUUAAUGAUGAUCCUAUATT against Neu3: the z-score was inactive: 1.66.
